Assay results from the supplement of paper PMC6143611.
Where a name gives a salt, the structure may show the parent alone. ± gives the uncertainty stated by the source. Some of the results follow. Baselines shift from plate to plate; read single values as rough.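 A heat-shock-induced fluorescent stripe was set in larval rod outer segments at 6 dpf. Shedding distance ran from stripe to outer segment tip, measured by confocal stacks in about three fish per compound. Controls: 0.2% DMSO vehicle. Flagged compounds showed ≥20% change from same-week control, p < 0.001 (Dunnett test on mixed-effects models).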

What was measured:
[1] = system: Danio rerio larva rod photoreceptor outer segment; assay: rod outer segment growth distance Dg, difference from same-week DMSO control mean; higher = more outer segment growth; details: 20 µM; treatment time: 4 days (6-10 dpf)
[2] = system: Danio rerio larva rod photoreceptor outer segment; assay: rod outer segment shedding distance Ds, difference from same-week DMSO control mean; higher = less outer segment shedding; details: 20 µM; treatment time: 4 days (6-10 dpf)

| SMILES | rod outer segment growth distance Dg [1] [um] | rod outer segment shedding distance Ds [2] [um] |
| --- | --- | --- |
| CC1CNc2c(cccc2S(=O)(=O)N[C@@H](CCCNC(=N)N)C(=O)N2CC[C@@H](C)C[C@@H]2C(=O)O)C1 (some centres not stated) [Argatroban] | 0.62 ± 0.24 | -0.53 ± 0.25 |
| O=C(NC(NC(=S)Nc1ccc(F)c([N+](=O)[O-])c1)C(Cl)(Cl)Cl)C(c1ccccc1)c1ccccc1 (configuration not stated) | -1.28 ± 0.19 | -1.47 ± 0.26 |
| O=C(c1cc(Cc2n[nH]c(=O)c3ccccc23)ccc1F)N1CCN(C(=O)C2CC2)CC1 | -0.89 ± 0.14 | -0.57 ± 0.24 |
| CN(C[C@@H]1COCCO1)S(=O)(=O)Nc1ccc2ccc3ncc(-c4cnn(C)c4)cc3c(=O)c2c1 | 0.13 ± 0.15 | 0.38 ± 0.13 |
| CC(C)N(CC[C@H](c1ccccc1)c1cc(CO)ccc1O)C(C)C | -0.04 ± 0.17 | -0.52 ± 0.13 |
| Nc1nc2c(ncn2[C@@H]2O[C@H](CO)[C@@H](O)[C@H]2O)c(=O)[nH]1 [Guanosine] | 0.37 ± 0.25 | -0.53 ± 0.36 |
| Cc1ccc(-c2c(-c3nn(C)c4ncnc(N5CC[C@H](N6CCCCC6)C5)c34)cnn2C)cc1 | -0.44 ± 0.18 | -0.34 ± 0.12 |
| O=C(O[C@@H]1Cc2c(O)cc(O)cc2O[C@@H]1c1cc(O)c(O)c(O)c1)c1cc(O)c(O)c(O)c1 [(-)-Epigallocatechin Gallate] | -1.2 ± 0.32 | -0.98 ± 0.28 |
| CCCc1nc2c(C)cc(-c3nc4ccccc4n3C)cc2n1Cc1ccc(-c2ccccc2C(=O)O)cc1 [Telmisartan] | -0.45 ± 0.23 | -0.01 ± 0.18 |
| CCc1c2c(nc3ccc(OC(=O)N4CCC(N5CCCCC5)CC4)cc13)-c1cc3c(c(=O)n1C2)COC(=O)[C@]3(O)CC [Irinotecan] | 0.27 ± 0.2 | -1.38 ± 0.26 |
| COc1ccccc1N1CCN(CCN2C(=O)CC3(CCCC3)CC2=O)CC1 | -1.58 ± 0.16 | 0 ± 0.13 |
| C[N+](C)(C)CC(O)CC(=O)[O-] (racemic) [DL-Carnitine HCl] | -0.3 ± 0.33 | -0.68 ± 0.35 |
| CN1CC(=O)N2[C@H](c3ccc4c(c3)OCO4)c3[nH]c4ccccc4c3C[C@@H]2C1=O [Tadalafil] | -0.08 ± 0.18 | 0.35 ± 0.17 |
| Cc1c(OCC(F)(F)F)ccnc1C[S+]([O-])c1nc2ccccc2[nH]1 (configuration not stated) [Lansoprazole] | -0.44 ± 0.32 | 0.2 ± 0.22 |
| CNC(=O)[C@H](Cc1ccccc1)NC(=O)[C@H](CC(C)C)[C@H](CSc1cccs1)C(=O)NO [Batimastat (BB-94)] | -0.99 ± 0.2 | -1.11 ± 0.28 |
| CCC1=C(C)CN(C(=O)NCCc2ccc(S(=O)(=O)NC(=O)N[C@H]3CC[C@H](C)CC3)cc2)C1=O [Glimepiride] | 0.19 ± 0.29 | 0.42 ± 0.17 |
| CC(C)Cc1ccc(C(C)C(=O)O)cc1 (configuration not stated) [Ibuprofen] | 0.46 ± 0.25 | -0.28 ± 0.17 |
| O=c1[nH]cnc2c1ncn2[C@@H]1O[C@H](CO)[C@@H](O)[C@H]1O [Inosine] | -0.52 ± 0.31 | -0.24 ± 0.32 |
| CCn1cc(C(=O)O)c(=O)c2cc(F)c(N3CCN(C)CC3)cc21 [Pefloxacin Mesylate] | -0.97 ± 0.19 | -1.13 ± 0.29 |
| Nc1cccc(-c2cc3c(Oc4cccc(O)c4)ncnc3[nH]2)c1 | 0.65 ± 0.18 | -0.42 ± 0.16 |
| O=c1[nH]cc(F)c(=O)[nH]1 [Fluorouracil (5-Fluoracil, 5-FU)] | -0.02 ± 0.22 | -2.47 ± 0.31 |
| COc1nc(C)cnc1NS(=O)(=O)c1cccnc1-c1ccc(-c2nnco2)cc1 [Zibotentan (ZD4054)] | -0.15 ± 0.17 | -0.25 ± 0.15 |
| Cn1cnc(=N)c2[nH]cnc21 [3-Methyladenine] | -0.42 ± 0.14 | -0.03 ± 0.13 |

Entries of single compounds as entered above.
CCc1c2c(nc3ccc(OC(=O)N4CCC(N5CCCCC5)CC4)cc13)-c1cc3c(c(=O)n1C2)COC(=O)[C@]3(O)CC [Irinotecan] is listed with rod outer segment growth distance Dg [1] [um]: 0.27 ± 0.2; rod outer segment shedding distance Ds [2] [um]: -1.38 ± 0.26
Nc1cccc(-c2cc3c(Oc4cccc(O)c4)ncnc3[nH]2)c1 is listed with rod outer segment growth distance Dg [1] [um]: 0.65 ± 0.18; rod outer segment shedding distance Ds [2] [um]: -0.42 ± 0.16

Later entries:

| SMILES | rod outer segment growth distance Dg [1] [um] | rod outer segment shedding distance Ds [2] [um] |
| --- | --- | --- |
| N#C[C@@H]1C[C@@H]2C[C@@H]2N1C(=O)[C@@H](N)C12CC3CC(CC(O)(C3)C1)C2 [Saxagliptin] | -0.56 ± 0.23 | -0.64 ± 0.23 |
| CC12CC3CC(C)(C1)CC(N)(C3)C2 [Memantine HCl] | 0.48 ± 0.28 | 0.13 ± 0.27 |
| Nc1ccc(C(=O)Nc2cccc(-c3nc(N4CCOCC4)c4oc5ncccc5c4n3)c2)cn1 | -0.38 ± 0.21 | -0.39 ± 0.22 |
| C[C@@H]1O[C@@H](O[C@H]2[C@H](Oc3cc(O)c4c(c3)O[C@H](c3ccc(O)cc3)CC4=O)O[C@H](CO)[C@@H](O)[C@@H]2O)[C@H](O)[C@H](O)[C@H]1O [Naringin] | -2.17 ± 1.2 | -3.68 ± 1.3 |
| CN(C)C(=O)C(CCN1CCC(O)(c2ccc(Cl)cc2)CC1)(c1ccccc1)c1ccccc1 [Loperamide HCl] | 0.99 ± 0.3 | -0.21 ± 0.27 |
| CCO[C@@H]1OC(=O)C[C@@H]1NC(=O)[C@@H]1CCCN1C(=O)[C@@H](NC(=O)c1ccc(N)c(Cl)c1)C(C)(C)C | -0.06 ± 0.35 | -0.7 ± 0.38 |
| Cc1coc2c1C(=O)C(=O)c1c-2ccc2c1CCCC2(C)C [Tanshinone IIA] | -0.45 ± 0.18 | 0.83 ± 0.24 |
| CC(c1cc2ccccc2s1)N(O)C(N)=O (configuration not stated) [Zileuton] | -1.13 ± 0.17 | -0.38 ± 0.18 |
| C[C@]12C=CC(=O)N[C@@H]1CC[C@@H]1[C@@H]2CC[C@]2(C)[C@@H](C(=O)Nc3cc(C(F)(F)F)ccc3C(F)(F)F)CC[C@@H]12 [Dutasteride] | -0.45 ± 0.17 | -2.04 ± 0.19 |
| CC(C)c1nc(N(C)S(C)(=O)=O)nc(-c2ccc(F)cc2)c1/C=C/[C@@H](O)C[C@@H](O)CC(=O)O [Rosuvastatin Calcium] | -0.27 ± 0.29 | 0.1 ± 0.27 |
| Cc1cc(C)c(CNC(=O)c2cc(-c3ccc(CN4CCOCC4)cc3)cc3c2cnn3C2CCCC2)c(=O)[nH]1 | 0.11 ± 0.15 | -0.51 ± 0.14 |
| O=C1NC(=O)/C(=C/c2ccc(-c3ccc(F)cc3O)o2)S1 | -0.42 ± 0.22 | -0.8 ± 0.13 |
| COc1ccc(C[C@@H]2c3cc(OC)c(OC)cc3CC[N@+]2(C)CCC(=O)OCCCCCOC(=O)CC[N@@+]2(C)CCc3cc(OC)c(OC)cc3[C@H]2Cc2ccc(OC)c(OC)c2)cc1OC [Cisatracurium Besylate] | 0.64 ± 0.21 | 0.33 ± 0.22 |
| NS(=O)(=O)Cc1noc2ccccc12 [Zonisamide] | -0.72 ± 0.16 | 0.11 ± 0.19 |
| NC(N)=Nc1nc(CSCC/C(N)=N/S(N)(=O)=O)cs1 [Famotidine] | 0.23 ± 0.39 | -1.4 ± 0.43 |
| CN(C)CCc1c[nH]c2ccc(C[C@H]3COC(=O)N3)cc12 [Zolmitriptan] | -0.3 ± 0.25 | 0.13 ± 0.18 |
| COc1cc(F)c(C(C)C)cc1-c1ccc(C(F)(F)F)cc1CN1C(=O)O[C@H](c2cc(C(F)(F)F)cc(C(F)(F)F)c2)[C@@H]1C [Anacetrapib (MK-0859)] | -0.38 ± 0.14 | -0.34 ± 0.13 |
| C[C@H](Cc1cc2c(c(C(N)=O)c1)N(CCCO)CC2)NCCOc1ccccc1OCC(F)(F)F [Silodosin] | 0.58 ± 0.17 | -0.09 ± 0.15 |
| C[C@H](NC(=O)[C@@H](O)c1cc(F)cc(F)c1)C(=O)N[C@@H]1C(=O)N(C)c2ccccc2-c2ccccc21 | -2.24 ± 0.17 | -0.76 ± 0.12 |
| O=C(C[S+]([O-])Cc1ccco1)NC/C=C\COc1cc(CN2CCCCC2)ccn1 (configuration not stated) [Lafutidine] | -0.15 ± 0.24 | 0.88 ± 0.23 |
| Cc1ccc(Nc2nccc(N(C)c3ccc4c(C)n(C)nc4c3)n2)cc1S(N)(=O)=O | 0.43 ± 0.22 | -0.76 ± 0.27 |
| COCCCN1CCC(NC(=O)c2cc(Cl)c(N)c3c2OCC3)CC1 [Prucalopride] | -0.22 ± 0.21 | -0.43 ± 0.13 |
| COc1ccc([C@@H]2CC(=O)c3c(O)cc(O[C@@H]4O[C@H](CO)[C@@H](O)[C@H](O)[C@H]4O[C@@H]4O[C@@H](C)[C@H](O)[C@@H](O)[C@H]4O)cc3O2)cc1O [Neohesperidin] | -2.95 ± 1.1 | -3.55 ± 1.2 |
